The nature of this experiment: qHTS Assay for Lipid Storage Modulators in Drosophila S3 Cells.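 As to cell number change: cells counted by Cell Tracker Red CMTPX staining in the red channel.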 The settings on record: BODIPY lipid droplet fluorescence, 18-24 h; for cell number change: measured here: cell count max response, cells fed with added oleic acid. Summed up:
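Drosophila S3 cells got compounds at several concentrations plus oleic acid (400 uM solution). Laser-scanning cytometry with 488 nm excitation read lipid droplets at 500-530 nm and cells at 575-640 nm. Percent activity was relative to 20 uM Triacsin C.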
(In general: Quantitative high-throughput screening tests each substance at several concentrations.)

[1] abbreviates: measured here: lipid fluorescence (Fed channel) AC50, cells fed with added oleic acid.
[2] abbreviates: measured here: cell number channel AC50, cells fed with added oleic acid.

This is one part of the list. The main result of the screen is listed elsewhere. These columns were measured beside it and carry no call. The list favours compounds with an active or inconclusive main result. The note in brackets gives the kind of curve behind each potency; many fits are weak.

In the case of `COc1ccc(NC(=O)Cn2c(=O)n(-c3ccccc3)c(=O)c3oc4ccccc4c32)c(OC)c1`, the cell number change worked out at 8.54%. The AC50 under setting [1] is 29.1 µM [rising, single point].
Regarding `Cc1nc(-c2ccc(C(=O)Nc3cc(S(N)(=O)=O)ccc3C)cc2)cs1`, the cell number change was -33.6%. Also, under setting [2], the AC50 is 2.31 µM [falling, partial curve, poor fit].
As for `COc1ccc(/C=C/C(=O)C23CC4CC(CC(C4)C2)C3)cc1CN1CCOCC1`, the cell number change worked out at 12.2%. For the same molecule, the half-maximal activity concentration (AC50) under setting [1] was 25.9 µM [rising, single point].
On to `CC(=O)c1ccc(C(=O)N2CCC(CO)(Cc3cccc(C(F)(F)F)c3)CC2)cc1`, for which the cell number change was -12.2%.
Still for that read-out and setting: the value for `COc1ccc(COC(=O)c2ccc(Cl)c(S(=O)(=O)N3CCOCC3)c2)cc1F` was -13.3%.
As to `Cc1ccccc1C(=O)Oc1cccc2c(O)cccc12`, the cell number change was -30.8%. The AC50 under setting [2] was 23.1 µM [falling, single point]. The AC50 under setting [1] is 20.6 µM [falling, single point].
For `CCOC(=O)c1c(C)c(C(=O)NCCCN2CCCC2=O)c(C)n1CC`, the cell number change stood at 34.5%. Further, the AC50 under setting [2] was 23.1 µM [rising, single point]. Besides, the AC50 under setting [1] was 7.31 µM [rising, partial curve, poor fit].
In the case of `Cn1c(Cc2ccccc2)nnc1SCC(=O)N1CCOCC1`, the cell number change was -1.01%. Also, the AC50 under setting [1] was 29.1 µM [falling, single point].
For the molecule `Cc1ccc(CNC(=O)COc2ccc3c(c2)CCC3)cc1`, the cell number change is 25.7%. The AC50 under setting [1] is 20.6 µM [rising, single point].
As for `C/C(=N/OCO/N=C(\C)c1ccccc1)c1ccccc1`, the cell number change was 13.2%. Under setting [1], the half-maximal activity concentration (AC50) was 0.00366 µM [rising, full curve, poor fit].
Turning to `O=C(N/C(=C/c1ccco1)C(=O)N1CCCCCC1)c1ccccc1`, the cell number change is 15.5%. For the same molecule, the AC50 under setting [1] is 6.51 µM [rising, single point].
Regarding `CC(=O)Nc1cc2c(cc1[N+](=O)[O-])OCCO2`, the cell number change turned out to be 1.08%. Further, the AC50 under setting [2] is 3.66 µM [falling, single point]. Also, the AC50 under setting [1] is 3.66 µM [falling, single point].
Consider `CCOC(=O)c1cnc2c(OC)cccc2c1N1CCN(c2ccccn2)CC1`, for which the cell number change is -78.2%. Besides, the AC50 under setting [2] was 18.4 µM [falling, single point].
With `NCCNc1ccc(C(=O)N2c3ccccc3Sc3ccccc32)cc1[N+](=O)[O-]`, the cell number change came out at 11.2%.
As for `COc1ccc(S(=O)(=O)N2CCC(C(=O)N[C@H](C(=O)N3CCCCCC3)C(C)C)CC2)cc1`, the cell number change was -7.59%. The AC50 under setting [1] is 11.6 µM [falling, partial curve, poor fit].
With `C[C@@H]1NC(=O)c2cc([N+](=O)[O-])cc(I)c2NCC[C@@H](C(N)=O)NC(=O)[C@H](CC(N)=O)NC1=O`, the cell number change was -36.9%. The AC50 under setting [2] is 29.1 µM [falling, single point]. Further, the AC50 under setting [1] was 18.4 µM [falling, partial curve, poor fit].
Regarding `O=C(CC(=O)NCc1ccc(Cl)cc1)NCc1ccc(Cl)cc1`, the AC50 under setting [2] is 0.291 µM [rising, partial curve, poor fit].
Regarding `COC(=O)Cn1nc(-c2ccc(C)c(S(=O)(=O)N(C)C)c2)c2ccccc2c1=O`, the cell number change is -4.39%. Further, the AC50 under setting [1] is 2.91 µM [rising, single point].
Regarding `O=[N+]([O-])c1ccc2n[nH]nc2c1`, the cell number change worked out at 0.724%. The AC50 under setting [2] was 0.731 µM [falling, full curve].
Take `Cc1ccc(NC(=O)CNCc2ccccc2)cc1Br`: the AC50 under setting [2] is 2.31 µM [falling, partial curve].
`Cn1c(Cc2ccccc2)nnc1SCC(=O)Nc1ccccc1N1CCOCC1`: the AC50 is, setting by setting: under setting [2], 1.84 µM [rising, partial curve]; under setting [1], 0.82 µM [rising, single point].
Regarding `CC(=O)c1ccc(-c2ccc(C(=O)N3CCC(C(N)=O)CC3)o2)cc1`, the cell number change was 29.9%. In addition, the AC50 under setting [1] was 10.3 µM [rising, partial curve, poor fit].
`CC(C)NC(=O)CSc1nnc(-c2ccc(C(C)(C)C)cc2)n1C`: the AC50 under setting [1] was 20.6 µM [falling, single point].
As for `CCOc1ccc(CNn2nnnc2N)cc1`, the cell number change is -1.56%. For the same molecule, the AC50 under setting [2] was 6.51 µM [falling, single point]. Further, under setting [1], the AC50 is 3.66 µM [falling, single point].
On to `CCOc1ccc(CCNC(=O)COC(=O)c2ccc(F)c(S(=O)(=O)N3CCOCC3)c2)cc1OCC`, for which the cell number change was -33%. Further, the AC50 under setting [2] is 1.16 µM [falling, full curve, poor fit]. In addition, under setting [1], the AC50 was 10.3 µM [falling, partial curve, poor fit].
Consider `Cc1cccc(C)c1NC(=O)CCCSc1nnc(-c2ccco2)n1-c1ccccc1`, for which the cell number change turned out to be 0.593%. Also, under setting [2], the AC50 is 0.00461 µM [rising, full curve, poor fit]. Besides, the AC50 under setting [1] is 0.0731 µM [rising, full curve, poor fit].
As to `Cn1c(-c2c(N)n(CCc3ccccc3)c3nc4ccccc4nc23)nc2ccccc21`, the cell number change is -2.61%.
The same measure, in the same setting: next, `COc1ccc(Br)cc1C(=O)Nc1ccccc1N1CCN(C(=O)c2ccccc2)CC1`: 25.5%.
Regarding `CCN(C(=O)c1ccco1)c1nc(CC(=O)Nc2ccc(Cl)cc2)cs1`, the cell number change is -14.1%. Besides, the AC50 under setting [2] is 0.184 µM [rising, full curve].
Regarding `CC(C)N=Cc1c(O)[nH]c2ccccc12`, the cell number change stood at 41.3%. The AC50 under setting [2] was 2.59 µM [rising, full curve]. Besides, the AC50 under setting [1] was 4.11 µM [rising, partial curve].
In the case of `CC(C)NC(=O)C(c1ccc(F)cc1)N(Cc1ccco1)C(=O)CCC(=O)Nc1ccccn1` (stereo not drawn), the cell number change is 4.2%. Moreover, under setting [1], the AC50 is 0.206 µM [rising, single point].
Regarding `CC(C)N1CC(C(=O)Nc2ccc(S(=O)(=O)N3CCCCC3)cc2)CC1=O` (stereo not drawn), the cell number change stood at 14.5%.
As for `O=C1C=C(c2ccc3ncccc3c2)C[C@@H](c2ccc3c(c2)OCO3)C1`, the cell number change is -26.9%. Besides, under setting [1], the AC50 is 0.651 µM [rising, single point].
As for `Cc1ccc(OCc2nnc(SCC(=O)Nc3cc(C)on3)n2C)cc1`, the cell number change is -34%. In addition, the AC50 under setting [2] is 0.731 µM [falling, full curve]. Also, the AC50 under setting [1] was 25.9 µM [falling, single point].
Regarding `CCOC(=O)c1c(NC(=O)CSc2ncccn2)sc(C(=O)NC)c1C`, the cell number change amounted to 8.5%. Moreover, the AC50 under setting [2] is 0.164 µM [rising, full curve, poor fit]. Under setting [1], the AC50 was 0.116 µM [rising, full curve].
For the molecule `COc1ccc(NS(=O)(=O)c2cccc3nsnc23)cc1OC`, the half-maximal activity concentration (AC50) is 3.26 µM [rising, partial curve] under setting [2] and 0.291 µM [rising, full curve] under setting [1].
As to `CCc1cccc(C)c1NC(=O)c1ccc2c(c1)CCN2S(C)(=O)=O`, the cell number change came out at 20.6%. For the same molecule, the AC50 under setting [1] was 11.6 µM [rising, partial curve, poor fit].
`Cc1noc(C)c1CN1C(=O)NC(Cc2ccccc2)(Cc2ccccc2)C1=O`: the cell number change was determined as 5.94%. Under setting [1], the AC50 is 8.2 µM [rising, partial curve].
Regarding `O=C(c1ccc(Cl)cc1)C1CCCN(Cc2ccc(Oc3ncccn3)cc2)C1` (stereo not drawn), the cell number change is -7.51%. For the same molecule, the AC50 under setting [1] was 13 µM [falling, partial curve, poor fit].
On to `COc1ccc(C(=O)Nc2cc(OC)c(Cl)cc2Cl)cc1`, for which the cell number change was found to be 8.21%. Further, the AC50 under setting [2] is 0.00517 µM [falling, full curve, poor fit].
On to `CCN(CC)S(=O)(=O)c1cccc(C(=O)N[C@H](C(=O)OCC(=O)Nc2ccccc2)C(C)C)c1`, for which the cell number change was 36.2%.
With `CC(C)CC(C(=O)OCC(=O)c1c(N)n(C)c(=O)n(C)c1=O)N1C(=O)C2CC=CCC2C1=O` (stereo not drawn), the cell number change stood at 4.64%. For the same molecule, the AC50 under setting [1] was 0.517 µM [falling, full curve, poor fit].
Take `CNC(=O)/C(=C\c1ccc2c(c1)OCO2)NC(=O)c1ccc(Br)cc1`: the cell number change worked out at 4.6%. Further, the AC50 under setting [1] is 0.651 µM [rising, partial curve, poor fit].
Take `COc1ccc(-c2cc3nc(C)cc(-c4ccc(OC)cc4)n3n2)cc1`: the cell number change was -14.2%.
For `CC(C)[C@H](NC(=O)NCCc1ccccc1)C(=O)O`, the cell number change was -92.2%. Besides, under setting [2], the AC50 is 10.3 µM [falling, partial curve, poor fit]. Also, the AC50 under setting [1] was 20.6 µM [falling, partial curve].
Turning to `Cc1[nH]c(=O)[nH]c(=O)c1Cc1cccc2ccccc12`, the cell number change is -19.2%. In addition, the AC50 under setting [1] was 0.92 µM [falling, full curve, poor fit].
For the molecule `CN(CC(=O)Nc1ccc(F)cc1)C(=O)COc1ccccc1Cc1ccccc1`, the cell number change was -1.59%. Under setting [1], the AC50 is 3.66 µM [rising, single point].
`CN(C)/N=C/c1ccc(Sc2ccccc2[N+](=O)[O-])o1`: the cell number change came to 29.8%. Further, under setting [1], the AC50 was 29.1 µM [rising, single point].
With `CCOC(=O)CCc1c(C)c2ccc(OCC(=O)N(CC)CC)c(C)c2oc1=O`, the AC50 under setting [1] is 0.103 µM [falling, full curve, poor fit].
Turning to `CC1Cn2c(nnc2-c2ccccc2O)S1` (stereo not drawn), the cell number change was determined as 29.2%. In addition, the AC50 under setting [1] is 2.91 µM [rising, partial curve, poor fit].
As to `CCOc1ccc2ccccc2c1/C=N/NC(=O)CNC(=O)c1ccccc1O`, the cell number change is -14.5%.
With `O=C(CCCCCNC(=O)c1ccccc1)N/N=C/c1ccccc1O`, the AC50 under setting [1] is 11.6 µM [falling, partial curve].
Turning to `CS(=O)(=O)Nc1ccc(C(=O)NCCc2ccccc2)cc1`, the cell number change turned out to be 126%. For the same molecule, the AC50 under setting [2] was 23.1 µM [rising, partial curve]. Under setting [1], the AC50 was 2.31 µM [rising, partial curve].
For the molecule `CCC(C)NC(=O)c1ccc(CNS(=O)(=O)c2ccc3c(c2)C(C)(C)C(=O)N3C)cc1` (stereo not drawn), the cell number change turned out to be 27.2%.
As to `Cc1ccc(-c2noc(-c3ccccc3C(=O)N3CCCC3)n2)cc1`, the cell number change worked out at 17.5%. Moreover, the AC50 under setting [1] is 23.1 µM [rising, single point].
Consider `CCCCc1ncc(CN2CCC(n3nccc3NC(=O)c3ccccc3Cl)CC2)[nH]1`, for which the cell number change worked out at 7.03%. In addition, the AC50 under setting [1] was 0.461 µM [rising, single point].
`NC(=O)Nn1c(CCC(=O)O)ccc1-c1ccc(Br)cc1`: the cell number change is -0.331%. Under setting [1], the AC50 is 32.6 µM [falling, partial curve, poor fit].
Regarding `O=C(CSCc1ccccc1)N1CCc2ccccc21`, the cell number change came out at 42.4%. For the same molecule, the AC50 under setting [2] is 3.66 µM [rising, full curve].

The AC50 is the concentration giving half of the maximal activity seen. A higher AC50 goes with weaker potency.
